Assay [1] deals with T1, MRE11 (UniProt P49959).
T1 sequence: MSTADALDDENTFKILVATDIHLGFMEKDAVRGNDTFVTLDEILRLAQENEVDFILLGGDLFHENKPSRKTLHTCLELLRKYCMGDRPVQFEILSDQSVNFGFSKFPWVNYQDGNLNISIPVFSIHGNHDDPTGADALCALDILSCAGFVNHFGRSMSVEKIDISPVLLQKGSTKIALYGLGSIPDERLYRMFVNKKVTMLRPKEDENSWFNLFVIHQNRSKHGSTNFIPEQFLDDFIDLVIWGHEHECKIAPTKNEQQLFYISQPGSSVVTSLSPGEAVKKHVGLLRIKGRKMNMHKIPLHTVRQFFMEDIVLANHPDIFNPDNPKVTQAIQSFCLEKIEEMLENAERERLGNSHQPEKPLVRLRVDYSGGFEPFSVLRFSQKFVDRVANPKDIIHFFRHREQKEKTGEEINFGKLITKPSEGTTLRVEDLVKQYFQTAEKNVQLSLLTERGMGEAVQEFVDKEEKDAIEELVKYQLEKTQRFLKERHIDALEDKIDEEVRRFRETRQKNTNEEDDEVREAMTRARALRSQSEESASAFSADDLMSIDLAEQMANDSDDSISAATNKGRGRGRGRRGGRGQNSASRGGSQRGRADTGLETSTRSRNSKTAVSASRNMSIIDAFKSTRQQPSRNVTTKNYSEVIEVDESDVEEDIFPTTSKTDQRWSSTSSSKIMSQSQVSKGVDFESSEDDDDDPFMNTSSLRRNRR
Briefly: co-IP; mutual co-IP of MRE11 and SENP3 in cells; with or without DNA damage, ATMi or ATRi.

Amino acid sequences for entries named in this document (tags omitted).
UniProt O75925: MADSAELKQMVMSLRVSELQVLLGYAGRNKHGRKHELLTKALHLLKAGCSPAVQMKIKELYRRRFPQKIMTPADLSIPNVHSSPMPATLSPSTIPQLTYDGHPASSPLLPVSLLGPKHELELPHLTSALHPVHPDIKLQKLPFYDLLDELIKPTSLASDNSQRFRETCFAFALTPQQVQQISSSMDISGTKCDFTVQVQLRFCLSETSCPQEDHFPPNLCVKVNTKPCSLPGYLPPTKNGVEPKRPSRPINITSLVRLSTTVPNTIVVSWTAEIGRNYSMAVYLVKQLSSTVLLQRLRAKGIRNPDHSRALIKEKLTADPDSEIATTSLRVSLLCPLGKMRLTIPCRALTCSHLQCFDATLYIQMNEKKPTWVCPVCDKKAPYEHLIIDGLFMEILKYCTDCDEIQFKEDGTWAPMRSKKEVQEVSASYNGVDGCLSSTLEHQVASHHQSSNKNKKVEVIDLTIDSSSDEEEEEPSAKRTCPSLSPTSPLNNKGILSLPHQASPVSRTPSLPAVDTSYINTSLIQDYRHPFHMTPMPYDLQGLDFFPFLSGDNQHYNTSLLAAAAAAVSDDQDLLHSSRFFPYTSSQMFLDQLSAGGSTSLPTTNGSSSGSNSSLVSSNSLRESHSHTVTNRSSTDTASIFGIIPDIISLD
UniProt Q9H4L4: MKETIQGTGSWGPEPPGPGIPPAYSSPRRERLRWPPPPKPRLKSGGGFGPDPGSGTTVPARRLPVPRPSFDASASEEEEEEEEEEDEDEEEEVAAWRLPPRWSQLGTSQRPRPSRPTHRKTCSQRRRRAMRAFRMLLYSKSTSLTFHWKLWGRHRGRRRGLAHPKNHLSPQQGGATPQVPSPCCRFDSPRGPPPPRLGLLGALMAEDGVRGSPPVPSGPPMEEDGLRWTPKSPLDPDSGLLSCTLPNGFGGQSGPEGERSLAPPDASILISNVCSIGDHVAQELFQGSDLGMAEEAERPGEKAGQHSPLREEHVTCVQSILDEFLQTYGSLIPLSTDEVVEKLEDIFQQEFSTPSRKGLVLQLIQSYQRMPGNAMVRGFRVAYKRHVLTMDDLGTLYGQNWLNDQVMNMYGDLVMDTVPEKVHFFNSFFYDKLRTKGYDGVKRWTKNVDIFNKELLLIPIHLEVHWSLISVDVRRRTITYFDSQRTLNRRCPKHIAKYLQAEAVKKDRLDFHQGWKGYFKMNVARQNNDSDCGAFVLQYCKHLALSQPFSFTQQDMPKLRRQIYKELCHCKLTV

Assay [2] addresses T2, SFB-MRE11 (UniProt P49959).
T2 sequence: T1 sequence
Briefly: co-IP; SFB-MRE11 as bait in HEK293T cells, endogenous PIAS1 detected; with or without CPT.

The target of assay [3] is MBP-PIAS1 (UniProt O75925). Briefly: pull-down; purified proteins in T50 buffer, pulled down with amylose beads; MBP-PIAS1 (150 nM) and Flag-MRE11 (50 nM), also with overhang DNA (90 nM), which promoted the interaction; both purified.
Assay [4] concerns the target Flag-WT-MRE11 (complexed with RAD50) (UniProt P49959). Briefly: pull-down; purified proteins incubated in T50 buffer (25 mM Tris-HCl pH 7.5, 10% glycerol, 0.5 mM EDTA, 50 mM KCl, 1 mM DTT, 0.01% Igepal) on ice for 2 h, pulled down by anti-Flag M2 beads; supernatant and eluate immunoblotted; both purified. Background: Immunoblotting shows a protein as a band on a membrane.

Assay [5] has as its target Flag-4KR (complexed with RAD50) (UniProt P49959). Briefly: pull-down; Supplementary Fig. 3b, legend not shown; the methods tell of Flag-WT-MRE11 and Flag-4KR (complexed with RAD50) incubated with MBP-PIAS1 in T50 buffer, anti-Flag M2 or amylose beads; both purified.
Assay [6] addresses Flag-WT-MRE11 (complexed with RAD50) (UniProt P49959). Described as above.

Results are given in words; binding and its absence hold for the method and conditions named. For part of these data: Binding seen in cells or lysates may run through a third protein. Some entries that bind do so weakly or less than the wild type.

Turning to “SENP3 (from UniProt Q9H4L4 1-574) (enzyme)”, the binding result in assay [1] is recorded as “binds”.

With “endogenous PIAS1 (from UniProt O75925 1-651)”, the binding result in assay [2] is listed as “binds”.

As to “Flag-WT-MRE11 (complexed with RAD50) (from UniProt P49959 1-708; Q92878 1-1312)”, the binding entry in assay [3] is recorded as “binds”.

Take “MBP-PIAS1 (from UniProt O75925 1-651) (enzyme)”: the binding result in assay [4], in assay [5] and in assay [6] was “binds” each time.
